{"source": "patent US20220249622A1", "about": "(TCI CO., LTD., priority 2021, published 2022)", "test": "general procedure: Fmoc solid-phase peptide synthesis", "conditions": "whole synthesis, 220 nm", "note": "Plain letter strings leave the end groups untold."}
{"sequence": "NGTGPQNH (listed as Pangasius bocourti)", "values": [{"measurement": "final HPLC purity", "result": "95% or above"}]}
